{"source": "PubChem BioAssay AID493014", "about": "(National Center for Advancing Translational Sciences (NCATS), 2011)", "note": "The campaign covered roughly 340,000 compounds. About 170 (0.05%) were called active. The inconclusive results got no clear call from the source; some entries with a clear call stand among them for comparison. Calls follow the shape of the dose curve; as a rule, active = well fitted inhibition curve with a large enough effect in the signal ratio, with a control signal flat (not every such curve was filed as active); inconclusive = small, poorly fitted or top-dose-only effect, or effect the other way, or a change in a side signal; inactive = flat fitted curve, though single readings scatter; the % refers to the signal ratio. Potencies beside an inconclusive call are fits to weak or partial responses and may not hold up. Potency is read from the fitted curve at half-maximal effect.", "data": [{"assay": "qHTS Assay to Find Inhibitors of Chronic Active B-Cell Receptor Signaling;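 as to activity change, negative = inhibition: plate controls were basal doxycycline-induced cells for no effect and cells given 10 µM MG132 for full effect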", "details": "ABC-DLBCL IkBa-CBG/CBR reporter, luminescence ratio (green luciferase fused to IkBa over red control in TMD8 lymphoma cells), 4 h; activity change, negative = inhibition: at 46.1 µM (top of the series) unless noted", "summary_of_the_method": "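Compounds up to 46 uM were incubated four hours with TMD8 cells whose green CBG68 luciferase is fused to IkappaBalpha; red CBR luminescence normalised the signal, and concentration-effect curves were fitted to fusion, red and ratio data.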", "values": [{"smiles": "COc1ccc(/C=C/C(=O)NC(=S)Nc2ccccc2C(=O)NC2CCCCC2)cc1", "activity change, negative = inhibition": "inactive: -1.13%"}, {"smiles": "CC(=O)C1=NN(c2ccccc2)C(c2ccc3c(c2)OCO3)N1c1ccccc1", "note": "(centres undefined)", "activity change, negative = inhibition": "inactive: 0.596%"}, {"smiles": "CC(C)(C)c1cc(C(c2cccnc2)N2CCN(CCO)CC2)cc(C(C)(C)C)c1O", "note": "(centres undefined)", "Potency": "inconclusive: 16.4 µM [falling, partial curve, poor fit]"}, {"smiles": "Cc1ccc(-c2cc(C(=O)N3CCCCCC3)no2)cc1", "Potency": "inconclusive: 17.8 µM [falling, partial curve]"}, {"smiles": "COc1cccc(N2CCN(Cc3ccsc3)CC2)c1", "activity change, negative = inhibition": "inconclusive: 1.27%"}, {"smiles": "COc1ccc(OC)c(/C=N/N=C(\\N)c2nonc2N)c1", "activity change, negative = inhibition": "inconclusive: 11.1%"}, {"smiles": "CC1S/C(=N/N=C2CCCCC2)NC1=O", "note": "(centres undefined)", "Potency": "inconclusive: 29.1 µM [falling, single point]"}, {"smiles": "COc1ccc2c(c1)c(C(=O)N/N=C/c1ccc(O)c(O)c1)c(C)n2C", "Potency": "inconclusive: 29.1 µM [falling, single point]"}, {"smiles": "CCO[C@@H]1OC(C(=O)N2CCN(C)CC2)=C[C@H](C2CCCCC2)[C@H]1CCCO", "activity change, negative = inhibition": "inactive: 11.7%"}, {"smiles": "CCCn1c2ccccc2c2cnn(CC(=O)NC3CCC(C)CC3)c(=O)c21", "note": "(centres undefined)", "activity change, negative = inhibition": "inactive: 1.05%"}, {"smiles": "Oc1ccccc1CNc1ncc(Br)cc1Br", "activity change, negative = inhibition": "inconclusive: 11%"}, {"smiles": "Cc1cc(Oc2ccc(-c3ccccc3)cc2)n2ncnc2n1", "Potency": "inconclusive: 3.55 µM [falling, partial curve, poor fit]"}, {"smiles": "CCOC(=O)c1c(-c2ccc(OC)cc2)oc2cc(Br)c(O)cc12", "activity change, negative = inhibition": "inconclusive: 4.7%"}, {"smiles": "CCOCC(=O)Nc1nc2ccccc2s1", "Potency": "inconclusive: 23.1 µM [falling, partial curve]"}, {"smiles": "COC(=O)CC(NC(=O)CN1CCN(c2ccc(F)cc2)CC1)c1cccc(F)c1", "note": "(centres undefined)", "activity change, negative = inhibition": "inactive: 1.8%"}, {"smiles": "Cc1ccc(-n2c([C@@H]3C[C@H]3c3ccccc3)n[nH]c2=S)cc1", "activity change, negative = inhibition": "inconclusive: -5.43%"}, {"smiles": "Oc1ccccc1OCCOc1ccccc1OCCOc1ccccc1O", "activity change, negative = inhibition": "inconclusive: -15.9%"}, {"smiles": "COc1ccc2c(c1)SCCC2=O", "activity change, negative = inhibition": "inconclusive: 3.86%"}, {"smiles": "COc1ccc(C)cc1NC(=S)NC(C)c1ccc(OC)c(OC)c1", "note": "(centres undefined)", "activity change, negative = inhibition": "inactive: -0.927%"}, {"smiles": "Cc1cc([N+](=O)[O-])nn1CC(=O)NCc1ccccc1", "activity change, negative = inhibition": "inconclusive: 5.49%"}, {"smiles": "COCCN(CCOC)Cc1c(O)ccc2c1O/C(=C\\c1ccc(C)o1)C2=O", "activity change, negative = inhibition": "inactive: -1.76%"}, {"smiles": "Clc1cccc(NCc2nnc(SCc3ccccc3Cl)o2)c1", "activity change, negative = inhibition": "inconclusive: 4.53%"}, {"smiles": "CC(C)(C)c1nnc(NC(=O)CCS(=O)(=O)Cc2ccccc2)s1", "Potency": "inconclusive: 11.2 µM [falling, partial curve]"}, {"smiles": "c1ccc2c(c1)CCCN2Cc1nnnn1CC1CCCO1", "note": "(centres undefined)", "activity change, negative = inhibition": "inconclusive: 17.2%"}]}]}
